The supplement of paper PMC3682954
Values joined by “and” are separate entries in the source; they are usually repeats but may differ in a detail not shown here. Identical values can stand only once. Counter-ions that a name gives are not always drawn. ± gives the standard deviation of the averaged measurements. The list shows a part of the results. Many values rest on one well or one pass, so single values are uncertain.

Test system: RAW 264.7
Test: cell viability (MTT) relative to vehicle control; higher = more viable cells
Conditions: stimulus: HMGB1 5 ug/ml, 18 h
[1] = compound concentration: 1 ug/ml

Compound	cell viability (compound concentration: 3 uM)	cell viability [1] [%]
CCCCC(=O)O[C@]1(C(=O)CO)CC[C@H]2[C@@H]3CCC4=CC(=O)CC[C@]4(C)[C@H]3[C@@H](O)C[C@@]21C	124%	–
CCCCC(=O)O[C@]1(C(=O)CO)CC[C@H]2[C@@H]3CCC4=CC(=O)CC[C@]4(C)[C@H]3[C@@H](O)C[C@@]21C [Hydrocortisone 17-valerate]	–	109
OC1CCN2Cc3ccccc3N=C12 (stereo not drawn) [Peganine]	–	98
C[C@]12CC[C@@H]3c4ccc(O)cc4CC[C@H]3[C@@H]1C[C@@H](O)[C@@H]2O	112%	–
C[C@]12CC[C@@H]3c4ccc(O)cc4CC[C@H]3[C@@H]1C[C@@H](O)[C@@H]2O [Estriol]	102 ± 6.2%	–
CN(C)CCCO[C@@H]1[C@H]2OC(C)(C)O[C@H]2O[C@@H]1[C@H](O)CO	102%	–
CN(C)CCCO[C@@H]1[C@H]2OC(C)(C)O[C@H]2O[C@@H]1[C@H](O)CO [Amiprilose hydrochloride]	96.7 ± 3.6%	–
C=CC1=C(C(=O)O)N2C(=O)[C@@H](NC(=O)/C(=N\OCC(=O)O)c3csc(N)n3)[C@H]2SC1	106%	–
C=CC1=C(C(=O)O)N2C(=O)[C@@H](NC(=O)/C(=N\OCC(=O)O)c3csc(N)n3)[C@H]2SC1 [Cefixime]	127%	–
OCCOCCN1CCN(C(c2ccccc2)c2ccc(Cl)cc2)CC1 (stereo not drawn) [Hydroxyzine dihydrochloride]	101%	–
OCCOCCN1CCN(C(c2ccccc2)c2ccc(Cl)cc2)CC1 (stereo not drawn)	104%	–
O=C1NCC=C2c3cccc(Cl)c3NC12 (stereo not drawn) [8-Chlro-1-tetrahydronorharmanone]	–	91.2
O=C1N(c2ccccc2)c2ccccc2C1(Cc1ccncc1)Cc1ccncc1	107%	–
O=C1N(c2ccccc2)c2ccccc2C1(Cc1ccncc1)Cc1ccncc1 [Linopirdine]	104%	–
CN(C)CCC(c1ccc(Br)cc1)c1ccccn1 (racemic) [(±)-Brompheniramine maleate]	97.7%	–
CC(=O)Nc1nc2nc[nH]c2c(=O)[nH]1 [N-2-Acetylguanine]	–	92.7
Cc1ccccc1N1C(=O)c2cc(S(N)(=O)=O)c(Cl)cc2NC1C (stereo not drawn) [Metolazone]	98.6 ± 14%	–
Cc1ccccc1N1C(=O)c2cc(S(N)(=O)=O)c(Cl)cc2NC1C (stereo not drawn)	102%	–
CCCn1c(=O)c2[nH]c(-c3ccc(S(=O)(=O)O)cc3)nc2n(CCC)c1=O [1,3-Dipropyl-8-p-sulfophenylxanthine]	102%	–
Cc1cc(-n2c(=O)[nH]c(=O)n(C)c2=O)ccc1Oc1ccc(SC(F)(F)F)cc1	107%	–
Cc1cc(-n2c(=O)[nH]c(=O)n(C)c2=O)ccc1Oc1ccc(SC(F)(F)F)cc1 [Toltrazuril]	96.6 ± 2.7%	–
CC(=O)Oc1ccc(-c2coc3cc(OC4OC(COC5OCC(OC(C)=O)C(OC(C)=O)C5OC(C)=O)C(OC(C)=O)C(OC(C)=O)C4OC(C)=O)cc(OC(C)=O)c3c2=O)cc1 (stereo not drawn) [Genistein -7-O-Glc-Xyl, Acetate]	–	114
COc1cccc(C(=O)NNC2OC(CO)C(O)C2O)c1 (stereo not drawn)	–	102
COc1ccc2[nH]c([S+]([O-])Cc3ncc(C)c(OC)c3C)nc2c1 (stereo not drawn)	91.9% and 104%	–
COc1ccc2[nH]c([S+]([O-])Cc3ncc(C)c(OC)c3C)nc2c1 (stereo not drawn) [Omeprazole]	94.9 ± 3.5%	–
Nc1nc(SCc2ccc([N+](=O)[O-])cc2)c2ncn([C@@H]3O[C@H](CO)[C@H](O)C3O)c2n1 (stereo partly drawn) [S-(4-Nitrobenzyl)-6-thioguanosine]	106%	–
CC(=O)Oc1c(C)c(C)c2c(c1C)CCC(C)(CCCC(C)CCCC(C)CCCC(C)C)O2 (stereo not drawn) [alpha-TOCHOPHERYL ACETATE]	109%	–

Compound	cell viability (compound concentration: 3 uM)	cell viability [1] [%]
CC(=O)Nc1ccc(O)cc1 [Acetaminophen]	90.4%	–
CC(=O)Nc1ccc(O)cc1	112%	–
Brc1c(NC2=NCCN2)ccc2nccnc12	114%	–
CN(C)CCOC(=O)COc1ccc(Cl)cc1 [Centrophenoxine hydrochloride]	105%	–
CN(C)CCOC(=O)COc1ccc(Cl)cc1 [Meclofenoxate hydrochloride]	129%	–
CN(C)CCOC(=O)COc1ccc(Cl)cc1	106%	–
O=C1CC(c2ccc(O)cc2)Oc2ccccc21 (stereo not drawn) [4'-hydroxyflavanone]	–	101
OC(CCN1CCCCC1)(c1ccccc1)C1CCCCC1 (stereo not drawn)	106%	–
OC(CCN1CCCCC1)(c1ccccc1)C1CCCCC1 (stereo not drawn) [Trihexyphenidyl-D,L Hydrochloride]	108%	–
OC(CCN1CCCCC1)(c1ccccc1)C1CCCCC1 (stereo not drawn) [Trihexyphenidyl hydrochloride]	115%	–
N=C(N)N/N=C/c1c(Cl)cccc1Cl	103%	–
N=C(N)N/N=C/c1c(Cl)cccc1Cl [Guanabenz]	106%	–
N=C(N)N/N=C/c1c(Cl)cccc1Cl [Guanabenz acetate]	99.4 ± 8.8%	–
Cc1ccc2c(Cl)cc(Cl)c(O)c2n1	111%	–
CCCc1nc(C(C)(C)O)c(C(=O)O)n1Cc1ccc(-c2ccccc2-c2nnn[nH]2)cc1 [Olmesartan]	104 ± 2%	–
N#C/C(=C\c1ccc(O)c(O)c1)C(=O)NCCCNC(=O)/C(C#N)=C/c1ccc(O)c(O)c1 [Tyrphostin AG 537]	114%	–
O=C(OCc1ccccc1)c1ccccc1	103%	–
O=C(CC(=O)c1ccccc1)c1ccccc1	84.9%	–
CO[C@@H]1[C@H](O)[C@@H](CO)O[C@H]1n1ccc(N)nc1=O [2'-O-Methylcytidine]	–	91.5
CCC(=O)OCC(=O)[C@@]1(OC(=O)CC)[C@H](C)C[C@H]2[C@H]3[C@H]([C@@H](O)C[C@@]21C)[C@@]1(C)C=CC(=O)C=C1C[C@H]3Cl [Alclometasone dipropionate]	147%	–
CN(CCOc1ccc(CC2SC(=O)NC2=O)cc1)c1ccccn1 (stereo not drawn)	105% and 99.5% and 113%	–
CN(CCOc1ccc(CC2SC(=O)NC2=O)cc1)c1ccccn1 (stereo not drawn) [Rosiglitazone]	128%	–
CN(C)CC[C@@H](c1ccc(Cl)cc1)c1ccccn1	109% and 104%	–
COc1ccc(-c2oc3ccccc3c(=O)c2O)cc1 [4'-Methoxyflavonol]	–	91.9
COC(=O)C(N)CS (stereo not drawn)	109%	–
COc1cccc(-c2cc(=O)c3c(O)cccc3o2)c1 [5-Hydroxy-3'-methoxyflavone]	–	90.6
